Earlier results in patent US5847108A, “Clathrate of isoflavone derivatives and edible composition comprising the same” (Fujicco Co., Ltd., priority 1996, dated 1998).

Details: taste; Okubo et al.; cited from earlier work
In the case of O=c1c(-c2ccc(O)cc2)coc2cc(O[C@@H]3O[C@H](CO)[C@@H](O)[C@H](O)[C@H]3O)cc(O)c12 [genistin], the Threshold value is listed as 10^-1 mM. In the case of COc1cc2c(=O)c(-c3ccc(O)cc3)coc2cc1O[C@@H]1O[C@H](CO)[C@@H](O)[C@H](O)[C@H]1O [glycitin], the Threshold value is listed as 10^-3 mM. In the case of O=c1c(-c2ccc(O)cc2)coc2cc(O[C@@H]3O[C@H](CO)[C@@H](O)[C@H](O)[C@H]3O)ccc12 [daidzin], the Threshold value is listed as 10^-2 mm.
